# “And” between values parts separate entries of the source, which are not always exact repeats. Identical values can stand only once. Counter-ions that a name gives are not always drawn. The list shows a part of the results. Most values lie at the level of the controls, where differences are scatter.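 Reh is a human leukemia cell line; the read-out is the median γH2AX antibody signal in S-phase cells by flow cytometry, with the score counting standard deviations from the median difference of each paired set of plates. Scores above 2.5 were called candidate hits, while scores below -2 mark compounds that lowered the MK1775-induced damage.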
# Test system: Reh
# Assay: Z' of S-phase gammaH2AX difference (drug + MK1775 minus drug alone) (Z-score); higher = stronger synergistic S-phase DNA damage with MK1775
# Details: MK1775 concentration 400 nM; first compound 10 µM; 4 h
row,SMILES,Z' of S-phase gammaH2AX difference (Z-score)
1,O=C(O)C=C1CCCc2ccccc2C1O (configuration not stated) + C=CCn1c(=O)c2cnc(Nc3ccc(N4CCN(C)CC4)cc3)nc2n1-c1cccc(C(C)(C)O)n1 [MK1775],inactive: -0.898
2,CN(C)CCOc1ccc(-c2nc(-c3ccncc3)c(-c3ccc4c(c3)CC/C4=N\O)[nH]2)cc1 + C=CCn1c(=O)c2cnc(Nc3ccc(N4CCN(C)CC4)cc3)nc2n1-c1cccc(C(C)(C)O)n1 [MK1775],inactive: -0.333
3,C/C(=C\C(=O)Nc1ccccc1C(=O)O)c1ccc2ccccc2c1 + C=CCn1c(=O)c2cnc(Nc3ccc(N4CCN(C)CC4)cc3)nc2n1-c1cccc(C(C)(C)O)n1 [MK1775],inactive: 0.734 and inactive: 0.146
4,COc1c(C)c2c(c(O)c1C/C=C(\C)CCC(=O)O)C(=O)OC2 [Mycophenolic (Mycophenolate)] + C=CCn1c(=O)c2cnc(Nc3ccc(N4CCN(C)CC4)cc3)nc2n1-c1cccc(C(C)(C)O)n1 [MK1775],inactive: 1.39
5,Cc1ccnc(NS(=O)(=O)c2ccc(NC(=O)Nc3ccc(S(=O)(=O)Nc4nccc(C)n4)cc3)cc2)n1 + C=CCn1c(=O)c2cnc(Nc3ccc(N4CCN(C)CC4)cc3)nc2n1-c1cccc(C(C)(C)O)n1 [MK1775],inactive: 0.051
6,COc1cc(C(O)CO)ccc1OS(=O)(=O)O (configuration not stated) [MHPG sulfate potassium] + C=CCn1c(=O)c2cnc(Nc3ccc(N4CCN(C)CC4)cc3)nc2n1-c1cccc(C(C)(C)O)n1 [MK1775],inactive: -0.921
7,COC(=O)c1c(C)[nH]c(C)c1C(=O)c1ccccc1Cc1ccccc1 + C=CCn1c(=O)c2cnc(Nc3ccc(N4CCN(C)CC4)cc3)nc2n1-c1cccc(C(C)(C)O)n1 [MK1775],inactive: 1.47
8,CCCC1O[C@@H]2C[C@H]3[C@@H]4CCC5=CC(=O)C=C[C@]5(C)[C@H]4[C@@H](O)C[C@]3(C)[C@]2(C(=O)CO)O1 (some centres not stated) [Budesonide] + C=CCn1c(=O)c2cnc(Nc3ccc(N4CCN(C)CC4)cc3)nc2n1-c1cccc(C(C)(C)O)n1 [MK1775],inactive: 0.742
9,"NCCC1CCCC(CCN)N1 (configuration not stated) [MDL 26,630 trihydrochloride] + C=CCn1c(=O)c2cnc(Nc3ccc(N4CCN(C)CC4)cc3)nc2n1-c1cccc(C(C)(C)O)n1 [MK1775]",inactive: 1.29
10,CN1[C@@H]2CC[C@H]1CC(OC(=O)c1c[nH]c3ccccc13)C2 (some centres not stated) [3-Tropanyl-indole-3-carboxylate hydrochloride] + C=CCn1c(=O)c2cnc(Nc3ccc(N4CCN(C)CC4)cc3)nc2n1-c1cccc(C(C)(C)O)n1 [MK1775],inactive: 0.397
11,CCCCCCCCCCCCCCCCCCOCC(COP(=O)([O-])OCC[N+](C)(C)C)OC (configuration not stated) + C=CCn1c(=O)c2cnc(Nc3ccc(N4CCN(C)CC4)cc3)nc2n1-c1cccc(C(C)(C)O)n1 [MK1775],inactive: 1.56
12,COc1ccc(/C=C\c2cc(OC)c(OC)c(OC)c2)cc1O [Combretastatin A4] + C=CCn1c(=O)c2cnc(Nc3ccc(N4CCN(C)CC4)cc3)nc2n1-c1cccc(C(C)(C)O)n1 [MK1775],inactive: -0.0983
13,O=NN(CCCl)C(=O)NCCCl [Carmustine] + C=CCn1c(=O)c2cnc(Nc3ccc(N4CCN(C)CC4)cc3)nc2n1-c1cccc(C(C)(C)O)n1 [MK1775],inactive: 0
14,CCOC(=O)c1ncn2c1CN(C)C(=O)c1cc(F)ccc1-2 [Flumazenil] + C=CCn1c(=O)c2cnc(Nc3ccc(N4CCN(C)CC4)cc3)nc2n1-c1cccc(C(C)(C)O)n1 [MK1775],inactive: 0.921
15,NCC(O)(CS(=O)(=O)O)c1ccc(Cl)cc1 (configuration not stated) [2-Hydroxysaclofen] + C=CCn1c(=O)c2cnc(Nc3ccc(N4CCN(C)CC4)cc3)nc2n1-c1cccc(C(C)(C)O)n1 [MK1775],inactive: -0.18
16,CC[C@H](NC(=O)c1c(C)c(-c2ccccc2)nc2ccccc12)c1ccccc1 + C=CCn1c(=O)c2cnc(Nc3ccc(N4CCN(C)CC4)cc3)nc2n1-c1cccc(C(C)(C)O)n1 [MK1775],inactive: 0.281
17,"N/C(=N\C(=O)c1nc(Cl)c(N)nc1N)NCc1ccc(Cl)c(Cl)c1 [3',4'-Dichlorobenzamil] + C=CCn1c(=O)c2cnc(Nc3ccc(N4CCN(C)CC4)cc3)nc2n1-c1cccc(C(C)(C)O)n1 [MK1775]",inactive: 0.265
18,O=C1O/C(=C/Br)CCC1c1cccc2ccccc12 (configuration not stated) [Bromoenol lactone] + C=CCn1c(=O)c2cnc(Nc3ccc(N4CCN(C)CC4)cc3)nc2n1-c1cccc(C(C)(C)O)n1 [MK1775],inactive: -0.234
19,CC(C(=O)O)c1cccc(C(=O)c2ccccc2)c1 (configuration not stated) [Ketoprofen] + C=CCn1c(=O)c2cnc(Nc3ccc(N4CCN(C)CC4)cc3)nc2n1-c1cccc(C(C)(C)O)n1 [MK1775],inactive: -0.284

row,SMILES,Z' of S-phase gammaH2AX difference (Z-score)
1,Nc1nc(N)c2nc(CNc3ccc(C(=O)N[C@@H](CCC(=O)O)C(=O)O)cc3)cnc2n1 [Aminopterin] + C=CCn1c(=O)c2cnc(Nc3ccc(N4CCN(C)CC4)cc3)nc2n1-c1cccc(C(C)(C)O)n1 [MK1775],active: 6.27
2,NC(CCCP(=O)(O)O)C(=O)O (configuration not stated) [(?)-2-Amino-5-phosphonopentanoic acid] + C=CCn1c(=O)c2cnc(Nc3ccc(N4CCN(C)CC4)cc3)nc2n1-c1cccc(C(C)(C)O)n1 [MK1775],inactive: -0.124
3,O=C(O)C(Cc1c[nH]c2ccccc12)N1C(=O)c2ccccc2C1=O (configuration not stated) + C=CCn1c(=O)c2cnc(Nc3ccc(N4CCN(C)CC4)cc3)nc2n1-c1cccc(C(C)(C)O)n1 [MK1775],inactive: 0.221
4,NCCSSCCN [Cystamine dihydrochloride] + C=CCn1c(=O)c2cnc(Nc3ccc(N4CCN(C)CC4)cc3)nc2n1-c1cccc(C(C)(C)O)n1 [MK1775],inactive: -0.307
5,Nc1nc2c(ncn2COCCO)c(=O)[nH]1 [Acyclovir] + C=CCn1c(=O)c2cnc(Nc3ccc(N4CCN(C)CC4)cc3)nc2n1-c1cccc(C(C)(C)O)n1 [MK1775],inactive: 0.0835
6,CCCCCN(CCCCC)C(=O)C(CCC(=O)O)NC(=O)c1ccc(Cl)c(Cl)c1 (configuration not stated) [Lorglumide sodium] + C=CCn1c(=O)c2cnc(Nc3ccc(N4CCN(C)CC4)cc3)nc2n1-c1cccc(C(C)(C)O)n1 [MK1775],inactive: 0.713
7,CC(C)NCC(O)c1ccc(O)c(O)c1 (configuration not stated) [(?)-Isoproterenol hydrochloride] + C=CCn1c(=O)c2cnc(Nc3ccc(N4CCN(C)CC4)cc3)nc2n1-c1cccc(C(C)(C)O)n1 [MK1775],inactive: -0.0753
8,CC(C)NCC(O)c1ccc(O)c(O)c1 (stereo not drawn) [S(+)-Isoproterenol (+)-bitartrate] + C=CCn1c(=O)c2cnc(Nc3ccc(N4CCN(C)CC4)cc3)nc2n1-c1cccc(C(C)(C)O)n1 [MK1775],inactive: -0.216
9,CS(=O)(=O)N1CCN(Cc2cc3nc(-c4cccc5[nH]ncc45)nc(N4CCOCC4)c3s2)CC1 + C=CCn1c(=O)c2cnc(Nc3ccc(N4CCN(C)CC4)cc3)nc2n1-c1cccc(C(C)(C)O)n1 [MK1775],inactive: -0.573
10,O=C(CCCCCCC(=O)Nc1ccccc1)NO [Vorinostat (SAHA)] + C=CCn1c(=O)c2cnc(Nc3ccc(N4CCN(C)CC4)cc3)nc2n1-c1cccc(C(C)(C)O)n1 [MK1775],inactive: 0.0451
11,Cc1cc(C)c(NC(=O)C[C@H](CC(=O)O)c2cccc3ccccc23)c(C(=O)N2CCC3(CCCC3)CC2)c1 + C=CCn1c(=O)c2cnc(Nc3ccc(N4CCN(C)CC4)cc3)nc2n1-c1cccc(C(C)(C)O)n1 [MK1775],inactive: -0.425
12,C[C@]12C[C@H](O)[C@H]3[C@@H](CCC4=CC(=O)CC[C@@]43C)[C@@H]1CC[C@@H]2C(=O)CO [Corticosterone] + C=CCn1c(=O)c2cnc(Nc3ccc(N4CCN(C)CC4)cc3)nc2n1-c1cccc(C(C)(C)O)n1 [MK1775],inactive: -0.578
13,COc1ccc(S(=O)(=O)Nc2cccnc2Nc2ccc(O)cc2)cc1 + C=CCn1c(=O)c2cnc(Nc3ccc(N4CCN(C)CC4)cc3)nc2n1-c1cccc(C(C)(C)O)n1 [MK1775],inactive: -0.0126
14,COc1ccccc1N1CCN(CCN(C(=O)c2ccc(F)cc2)c2ccccn2)CC1 [p-MPPF dihydrochloride] + C=CCn1c(=O)c2cnc(Nc3ccc(N4CCN(C)CC4)cc3)nc2n1-c1cccc(C(C)(C)O)n1 [MK1775],inactive: -0.218
15,"c1ccc(-c2ccccn2)nc1 [2,2'-Bipyridyl] + C=CCn1c(=O)c2cnc(Nc3ccc(N4CCN(C)CC4)cc3)nc2n1-c1cccc(C(C)(C)O)n1 [MK1775]",inactive: -1
16,O=C(O)c1ccc2c(c1)nc(Nc1cccc(Cl)c1)c1ccncc12 [cx-4945 (Silmitasertib)] + C=CCn1c(=O)c2cnc(Nc3ccc(N4CCN(C)CC4)cc3)nc2n1-c1cccc(C(C)(C)O)n1 [MK1775],inactive: -0.73
17,Oc1ccc(Cn2cc[nH]c2=S)cc1 [1-(4-Hydroxybenzyl)imidazole-2-thiol] + C=CCn1c(=O)c2cnc(Nc3ccc(N4CCN(C)CC4)cc3)nc2n1-c1cccc(C(C)(C)O)n1 [MK1775],inactive: -0.265
18,CCN(CC)C(=S)SSC(=S)N(CC)CC [Disulfiram (Antabuse)] + C=CCn1c(=O)c2cnc(Nc3ccc(N4CCN(C)CC4)cc3)nc2n1-c1cccc(C(C)(C)O)n1 [MK1775],inactive: -0.123
